Reference: the supplement of paper PMC10849652
The other results are listed elsewhere or left out.

Sequences of proteins named here, by UniProt entry; tags and fusion partners are left off. A change or cut given only in a name is not applied to a line headed by its entry.
UniProt Q99496: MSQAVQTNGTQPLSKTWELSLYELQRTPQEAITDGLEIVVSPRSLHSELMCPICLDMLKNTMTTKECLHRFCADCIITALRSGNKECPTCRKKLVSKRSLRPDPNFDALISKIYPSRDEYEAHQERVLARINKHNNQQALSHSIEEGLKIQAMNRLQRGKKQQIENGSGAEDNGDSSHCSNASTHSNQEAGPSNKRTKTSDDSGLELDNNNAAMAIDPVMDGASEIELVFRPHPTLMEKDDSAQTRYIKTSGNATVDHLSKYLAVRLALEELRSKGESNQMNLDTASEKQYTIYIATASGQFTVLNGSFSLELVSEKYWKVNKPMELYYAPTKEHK
UniProt Q04864: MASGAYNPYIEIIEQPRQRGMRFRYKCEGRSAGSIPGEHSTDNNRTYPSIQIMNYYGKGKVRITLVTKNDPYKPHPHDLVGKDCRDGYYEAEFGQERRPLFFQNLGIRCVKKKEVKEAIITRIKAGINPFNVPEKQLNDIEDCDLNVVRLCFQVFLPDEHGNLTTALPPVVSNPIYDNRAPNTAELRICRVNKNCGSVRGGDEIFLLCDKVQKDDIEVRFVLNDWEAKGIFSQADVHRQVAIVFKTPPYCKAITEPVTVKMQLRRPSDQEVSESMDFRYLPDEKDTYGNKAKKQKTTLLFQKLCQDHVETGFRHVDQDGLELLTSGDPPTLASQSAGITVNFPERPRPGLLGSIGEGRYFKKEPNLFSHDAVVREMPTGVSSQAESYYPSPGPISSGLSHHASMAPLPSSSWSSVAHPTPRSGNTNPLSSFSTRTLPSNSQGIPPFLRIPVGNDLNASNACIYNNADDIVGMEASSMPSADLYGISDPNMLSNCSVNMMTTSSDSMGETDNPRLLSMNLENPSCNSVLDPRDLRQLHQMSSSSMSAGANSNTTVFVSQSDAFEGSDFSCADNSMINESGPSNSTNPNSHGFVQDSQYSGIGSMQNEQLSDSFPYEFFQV
UniProt Q2KHR2: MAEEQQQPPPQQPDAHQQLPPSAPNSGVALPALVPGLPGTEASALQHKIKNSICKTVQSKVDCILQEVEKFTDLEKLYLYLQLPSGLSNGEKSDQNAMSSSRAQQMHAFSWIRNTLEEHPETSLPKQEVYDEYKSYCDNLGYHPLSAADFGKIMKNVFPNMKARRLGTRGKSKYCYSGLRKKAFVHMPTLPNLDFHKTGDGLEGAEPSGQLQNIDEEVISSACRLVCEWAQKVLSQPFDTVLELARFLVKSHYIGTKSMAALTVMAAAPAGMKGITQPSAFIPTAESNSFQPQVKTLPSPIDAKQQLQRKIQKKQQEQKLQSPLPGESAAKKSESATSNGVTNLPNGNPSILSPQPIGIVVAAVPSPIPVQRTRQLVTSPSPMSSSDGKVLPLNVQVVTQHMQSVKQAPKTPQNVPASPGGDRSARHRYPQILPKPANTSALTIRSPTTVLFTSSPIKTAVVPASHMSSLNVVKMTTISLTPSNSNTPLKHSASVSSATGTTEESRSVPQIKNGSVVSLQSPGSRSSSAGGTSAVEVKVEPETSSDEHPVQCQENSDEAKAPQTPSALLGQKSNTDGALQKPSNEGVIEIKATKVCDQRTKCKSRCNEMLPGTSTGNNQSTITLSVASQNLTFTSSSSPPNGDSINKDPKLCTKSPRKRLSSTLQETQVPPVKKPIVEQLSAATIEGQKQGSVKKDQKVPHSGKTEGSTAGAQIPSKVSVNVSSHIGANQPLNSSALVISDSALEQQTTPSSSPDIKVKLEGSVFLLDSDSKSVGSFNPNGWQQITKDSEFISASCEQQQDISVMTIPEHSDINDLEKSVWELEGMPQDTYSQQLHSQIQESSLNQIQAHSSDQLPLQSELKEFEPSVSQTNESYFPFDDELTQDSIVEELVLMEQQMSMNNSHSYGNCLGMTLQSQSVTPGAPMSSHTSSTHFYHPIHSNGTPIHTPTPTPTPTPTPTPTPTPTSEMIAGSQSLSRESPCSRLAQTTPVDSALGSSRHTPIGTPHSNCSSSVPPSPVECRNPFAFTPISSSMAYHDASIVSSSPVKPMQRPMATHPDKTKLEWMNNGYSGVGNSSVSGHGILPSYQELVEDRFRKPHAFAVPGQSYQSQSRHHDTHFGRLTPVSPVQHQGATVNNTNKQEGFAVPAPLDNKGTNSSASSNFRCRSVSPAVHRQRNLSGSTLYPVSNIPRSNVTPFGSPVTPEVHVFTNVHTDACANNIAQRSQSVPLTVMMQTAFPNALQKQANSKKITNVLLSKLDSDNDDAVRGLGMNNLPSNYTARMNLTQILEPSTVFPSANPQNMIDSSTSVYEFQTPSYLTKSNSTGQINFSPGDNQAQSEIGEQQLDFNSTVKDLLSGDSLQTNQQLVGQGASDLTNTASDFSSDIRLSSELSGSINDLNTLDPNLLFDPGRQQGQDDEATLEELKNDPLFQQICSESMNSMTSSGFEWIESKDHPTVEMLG
UniProt Q8IUF8: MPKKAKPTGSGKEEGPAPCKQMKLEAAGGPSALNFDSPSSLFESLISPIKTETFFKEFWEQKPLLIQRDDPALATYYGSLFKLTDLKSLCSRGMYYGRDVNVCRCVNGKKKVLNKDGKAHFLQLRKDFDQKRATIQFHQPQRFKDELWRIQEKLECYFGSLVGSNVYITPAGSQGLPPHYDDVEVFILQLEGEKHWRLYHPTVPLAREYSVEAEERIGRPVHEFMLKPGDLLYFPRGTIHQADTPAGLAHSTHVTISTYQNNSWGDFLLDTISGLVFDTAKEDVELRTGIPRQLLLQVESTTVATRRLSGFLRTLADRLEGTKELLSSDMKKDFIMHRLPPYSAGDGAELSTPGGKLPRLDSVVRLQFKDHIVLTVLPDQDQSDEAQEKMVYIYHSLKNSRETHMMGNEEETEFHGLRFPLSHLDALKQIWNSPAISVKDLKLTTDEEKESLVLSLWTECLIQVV
UniProt Q96A37: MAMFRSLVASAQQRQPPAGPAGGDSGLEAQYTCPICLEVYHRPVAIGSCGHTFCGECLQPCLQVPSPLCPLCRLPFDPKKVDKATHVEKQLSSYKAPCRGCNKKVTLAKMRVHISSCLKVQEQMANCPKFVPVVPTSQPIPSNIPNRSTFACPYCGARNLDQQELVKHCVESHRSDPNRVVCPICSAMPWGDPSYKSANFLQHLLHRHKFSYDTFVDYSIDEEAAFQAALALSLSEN
UniProt Q8WVD5: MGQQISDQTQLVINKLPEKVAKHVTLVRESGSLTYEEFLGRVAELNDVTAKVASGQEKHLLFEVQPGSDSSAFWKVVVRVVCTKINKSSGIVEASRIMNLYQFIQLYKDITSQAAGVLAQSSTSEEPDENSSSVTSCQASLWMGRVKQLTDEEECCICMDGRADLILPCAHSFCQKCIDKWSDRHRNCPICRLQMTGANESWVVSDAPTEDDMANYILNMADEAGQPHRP
UniProt O43567: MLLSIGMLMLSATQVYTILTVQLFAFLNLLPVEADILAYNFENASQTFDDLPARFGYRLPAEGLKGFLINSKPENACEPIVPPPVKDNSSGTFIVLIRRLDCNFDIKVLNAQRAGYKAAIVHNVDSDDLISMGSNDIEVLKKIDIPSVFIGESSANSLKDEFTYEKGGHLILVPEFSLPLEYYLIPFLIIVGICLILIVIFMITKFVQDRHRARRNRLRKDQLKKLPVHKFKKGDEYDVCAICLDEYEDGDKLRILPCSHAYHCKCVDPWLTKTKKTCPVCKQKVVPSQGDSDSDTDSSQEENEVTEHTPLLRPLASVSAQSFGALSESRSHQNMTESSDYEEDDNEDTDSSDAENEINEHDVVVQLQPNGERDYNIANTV
UniProt Q96LZ7: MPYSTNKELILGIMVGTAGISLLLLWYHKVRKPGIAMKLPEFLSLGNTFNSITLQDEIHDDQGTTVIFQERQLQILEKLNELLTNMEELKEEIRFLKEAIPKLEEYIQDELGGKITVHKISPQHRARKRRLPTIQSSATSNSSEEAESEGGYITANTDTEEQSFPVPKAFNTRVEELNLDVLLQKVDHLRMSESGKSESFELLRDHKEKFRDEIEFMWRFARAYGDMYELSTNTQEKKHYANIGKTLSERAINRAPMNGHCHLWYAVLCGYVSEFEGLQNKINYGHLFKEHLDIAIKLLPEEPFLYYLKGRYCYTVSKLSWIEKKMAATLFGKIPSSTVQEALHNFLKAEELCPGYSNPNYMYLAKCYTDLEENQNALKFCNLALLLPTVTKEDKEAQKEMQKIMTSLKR
UniProt Q5VTB9: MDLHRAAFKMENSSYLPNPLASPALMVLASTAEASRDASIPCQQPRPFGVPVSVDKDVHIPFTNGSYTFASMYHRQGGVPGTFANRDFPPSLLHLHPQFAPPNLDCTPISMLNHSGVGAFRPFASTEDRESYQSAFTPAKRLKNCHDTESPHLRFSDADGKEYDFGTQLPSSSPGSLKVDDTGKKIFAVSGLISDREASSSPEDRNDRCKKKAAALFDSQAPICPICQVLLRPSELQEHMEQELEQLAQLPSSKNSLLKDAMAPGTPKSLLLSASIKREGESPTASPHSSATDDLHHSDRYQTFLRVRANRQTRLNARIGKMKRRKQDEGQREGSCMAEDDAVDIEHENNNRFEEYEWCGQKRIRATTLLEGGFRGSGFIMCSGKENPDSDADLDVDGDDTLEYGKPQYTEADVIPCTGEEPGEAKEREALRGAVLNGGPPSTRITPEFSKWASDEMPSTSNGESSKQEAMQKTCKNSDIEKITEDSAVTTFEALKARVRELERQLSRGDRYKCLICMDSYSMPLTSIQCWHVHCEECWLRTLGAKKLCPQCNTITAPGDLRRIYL
UniProt Q92963, whole entry, looked up: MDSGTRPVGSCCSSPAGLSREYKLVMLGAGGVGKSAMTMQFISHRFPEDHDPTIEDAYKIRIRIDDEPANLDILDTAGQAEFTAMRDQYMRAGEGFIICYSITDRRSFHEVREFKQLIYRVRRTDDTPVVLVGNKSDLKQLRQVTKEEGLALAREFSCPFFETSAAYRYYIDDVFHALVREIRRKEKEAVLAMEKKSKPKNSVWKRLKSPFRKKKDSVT
UniProt Q8NDN9: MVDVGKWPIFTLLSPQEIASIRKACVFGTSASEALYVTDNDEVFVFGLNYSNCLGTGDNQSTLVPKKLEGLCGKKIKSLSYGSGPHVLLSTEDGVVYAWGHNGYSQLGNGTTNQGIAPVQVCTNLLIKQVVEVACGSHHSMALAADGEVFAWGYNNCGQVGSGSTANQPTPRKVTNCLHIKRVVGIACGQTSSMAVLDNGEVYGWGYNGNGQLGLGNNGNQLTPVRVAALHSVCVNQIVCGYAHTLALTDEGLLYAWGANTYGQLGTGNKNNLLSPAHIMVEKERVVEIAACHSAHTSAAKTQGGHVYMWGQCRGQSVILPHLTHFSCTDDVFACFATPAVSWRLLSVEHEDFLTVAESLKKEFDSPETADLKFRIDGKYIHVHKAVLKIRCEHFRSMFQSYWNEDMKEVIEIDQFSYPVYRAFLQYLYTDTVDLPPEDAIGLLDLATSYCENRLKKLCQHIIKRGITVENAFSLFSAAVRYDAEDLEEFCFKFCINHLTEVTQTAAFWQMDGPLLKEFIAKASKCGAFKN
UniProt Q8NCN4: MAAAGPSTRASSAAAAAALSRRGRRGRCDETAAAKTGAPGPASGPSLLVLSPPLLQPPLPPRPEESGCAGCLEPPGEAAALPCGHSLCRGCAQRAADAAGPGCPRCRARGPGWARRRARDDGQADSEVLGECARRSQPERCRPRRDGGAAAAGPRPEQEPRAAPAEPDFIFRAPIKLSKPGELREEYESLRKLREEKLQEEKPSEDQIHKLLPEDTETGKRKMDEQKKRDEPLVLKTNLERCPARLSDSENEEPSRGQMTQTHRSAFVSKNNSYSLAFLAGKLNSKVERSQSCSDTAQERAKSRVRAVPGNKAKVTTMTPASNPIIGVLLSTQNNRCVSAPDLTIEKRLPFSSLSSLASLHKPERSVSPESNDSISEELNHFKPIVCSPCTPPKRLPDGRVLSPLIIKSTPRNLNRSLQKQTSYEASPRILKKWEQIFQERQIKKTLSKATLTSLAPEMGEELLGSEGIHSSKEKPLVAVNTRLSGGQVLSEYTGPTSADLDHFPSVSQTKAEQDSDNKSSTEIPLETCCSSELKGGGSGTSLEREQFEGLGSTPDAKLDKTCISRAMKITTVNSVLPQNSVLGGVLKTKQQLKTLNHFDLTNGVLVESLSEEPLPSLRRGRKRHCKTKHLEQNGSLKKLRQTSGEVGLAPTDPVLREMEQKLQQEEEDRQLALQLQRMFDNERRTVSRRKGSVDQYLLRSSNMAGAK
UniProt Q6NTF9: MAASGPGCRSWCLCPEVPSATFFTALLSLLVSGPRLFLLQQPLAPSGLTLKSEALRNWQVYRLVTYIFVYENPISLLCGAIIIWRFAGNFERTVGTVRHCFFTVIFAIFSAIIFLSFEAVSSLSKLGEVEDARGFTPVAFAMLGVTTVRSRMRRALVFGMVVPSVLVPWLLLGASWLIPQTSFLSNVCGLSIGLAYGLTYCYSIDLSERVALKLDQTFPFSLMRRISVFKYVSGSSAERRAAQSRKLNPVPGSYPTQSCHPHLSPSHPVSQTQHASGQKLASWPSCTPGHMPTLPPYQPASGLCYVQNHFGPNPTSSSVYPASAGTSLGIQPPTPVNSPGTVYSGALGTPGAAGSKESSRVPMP

Tests used:
Assay in all cases: log2 fold change, soluble protein after heating vs DMSO (PISA); higher = thermal stabilisation; K562 cells, 10 uM, 30 min; active = over 0.2 and 3.5 SD of the protein, either way, in both replicates (recomputed)
[1] = compound: CC[C@@H]1C(=O)N(C)c2cnc(Nc3ccc(C(=O)NC4CCN(C)CC4)cc3OC)nc2N1C1CCCC1
How it was run: (§1)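 K562 cells at 2×10^6 cells/mL were given 10 μM compound for 30 min. Aliquots then went through 3 min of heating across 48°C-58°C, were pooled, and were extracted in PBS with 0.5% NP-40 at 4°C, and the supernatant after 21,000xg for 90 min was quantified by TMTpro 16plex LC-MS/MS with channel sums equalised. Thermal stability relative to control samples, from duplicates, is given as log2 fold change.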

[2] = compound: CC[C@@H]1C(=O)N(C)c2cnc(Nc3ccc(C(=O)N[C@H]4CC[C@H](N5CCN(CC6CC6)CC5)CC4)cc3OC)nc2N1C(C)C [volasertib]
How it was run: as §1

[3] = compound: CC[C@H](C)N1C=C(C2=C(C=C(C=C21)C3=CN=C(C=C3)N4CCNCC4)C(=O)NCC5=C(C=C(NC5=O)C)C)C
How it was run: as §1

[4] = compound: CCn1cc(-c2ccnc3[nH]c(-c4cccc(CN(C)C)c4)cc23)c(-c2ccc(NC(=O)N(C)C)cc2)n1
How it was run: as §1

[5] = compound: CN(C)CC(=O)Nc1ccc2[nH]c(=O)c3ccccc3c2c1
How it was run: as §1

[6] = compound: CN1CCC(CNc2ccc3ncc(-c4cccc(OC(F)(F)F)c4)n3n2)CC1
How it was run: as §1

[7] = compound: CC[C@H](C)[C@@H](C(=O)N[C@@H]([C@@H](C)O)C(=O)N[C@@H](CC(C)C)C(=O)[C@]1(CO1)C)NC(=O)[C@H]([C@@H](C)CC)N(C)C(=O)C [epoxomicin]
How it was run: as §1

[8] = compound: CN1C2=C(C3=C1C(=O)N(N=C3)CC4=CC(=CC=C4)N)SC(=C2)S(=O)C
How it was run: as §1

[9] = compound: CCn1c(C(=O)N(C2CC2)C2CC2)cc2c3c(ncn3C)c(Nc3cc(C)n(C)n3)nc21
How it was run: as §1

[10] = compound: CN(CCOC1=CC=C(C=C1)C[C@H]2C(=O)NC(=O)S2)C3=CC=CC=N3 (racemic) [rosiglitazone]
How it was run: as §1

Measured: log2 fold change

RNF185 (UniProt Q96GF1)
inactive: [1] -0.041 | [2] -0.101 | [3] -0.06 | [4] -0.003 | [5] 0.028 | [6] 0.09

RCOR1 (UniProt Q9UKL0)
inactive: [1] 0.116 | [2] 0.001 | [3] 0.212 | [7] 0.002 | [4] -0.033 | [5] 0.006 | [8] -0.024 | [6] -0.037

RCN3 (UniProt Q96D15)
inactive: [1] -0.033 | [2] 0.053 | [3] -0.031 | [7] -0.118 | [4] -0.007 | [5] -0.019 | [8] -0.03 | [6] -0.234

RETREG3 (UniProt Q86VR2)
inactive: [1] -0.04 | [2] -0.132 | [3] 0 | [7] 0.048 | [4] -0.043 | [5] 0.008 | [8] -0.02 | [6] -0.149

RNASEH2A (UniProt O75792)
active: [6] -0.394
inactive: [1] -0.062 | [2] -0.075 | [3] 0.068 | [7] 0.061 | [4] -0.061 | [5] -0.118 | [8] -0.019

RGS10 (UniProt O43665)
active: [2] -0.205
inactive: [1] -0.097 | [3] -0.043 | [7] 0.101 | [4] 0.011 | [5] 0.078 | [8] -0.111 | [6] -0.016

RECQL (UniProt P46063)
inactive: [1] -0.032 | [2] -0.014 | [3] 0.002 | [7] 0 | [4] -0.021 | [5] 0.016 | [8] -0.076 | [6] 0.058

RNF2 (UniProt Q99496)
inactive: [1] -0.045 | [2] -0.169 | [7] 0.168 | [4] 0.012 | [5] 0.007 | [8] 0.063 | [6] -0.03
active: [3] -0.307

REL (UniProt Q04864)
inactive: [1] 0.045 | [2] -0.176 | [3] -0.022 | [7] 0.043 | [4] 0.159 | [5] 0.003 | [8] 0.011 | [6] 0.141

RNF146 (UniProt Q9NTX7)
inactive: [1] 0.121 | [2] -0.168 | [7] 0.016 | [9] 0.038 | [5] 0.064 | [10] 0.067 | [8] 0.032

RBMY1E (UniProt A6NEQ0)
inactive: [1] -0.068 | [2] -0.236 | [3] -0.034 | [4] 0.084 | [6] -0.199

RDH13 (UniProt Q8NBN7)
active: [6] -0.318
inactive: [1] -0.154 | [2] -0.06 | [3] 0.06 | [7] 0.022 | [4] -0.058 | [5] 0.051 | [8] -0.059

RNF111 isoform 3 (UniProt Q6ZNA4)
inactive: [3] 0.024 | [9] -0.084 | [4] -0.025 | [6] 0.09

Ten neighbouring records out of the list so far, quoted:
RCOR1 (UniProt Q9UKL0)
inactive: [1] 0.116 | [2] 0.001 | [3] 0.212 | [7] 0.002 | [4] -0.033 | [5] 0.006 | [8] -0.024 | [6] -0.037

RCN3 (UniProt Q96D15)
inactive: [1] -0.033 | [2] 0.053 | [3] -0.031 | [7] -0.118 | [4] -0.007 | [5] -0.019 | [8] -0.03 | [6] -0.234

RETREG3 (UniProt Q86VR2)
inactive: [1] -0.04 | [2] -0.132 | [3] 0 | [7] 0.048 | [4] -0.043 | [5] 0.008 | [8] -0.02 | [6] -0.149

RNASEH2A (UniProt O75792)
active: [6] -0.394
inactive: [1] -0.062 | [2] -0.075 | [3] 0.068 | [7] 0.061 | [4] -0.061 | [5] -0.118 | [8] -0.019

RGS10 (UniProt O43665)
active: [2] -0.205
inactive: [1] -0.097 | [3] -0.043 | [7] 0.101 | [4] 0.011 | [5] 0.078 | [8] -0.111 | [6] -0.016

RECQL (UniProt P46063)
inactive: [1] -0.032 | [2] -0.014 | [3] 0.002 | [7] 0 | [4] -0.021 | [5] 0.016 | [8] -0.076 | [6] 0.058

RNF2 (UniProt Q99496)
inactive: [1] -0.045 | [2] -0.169 | [7] 0.168 | [4] 0.012 | [5] 0.007 | [8] 0.063 | [6] -0.03
active: [3] -0.307

REL (UniProt Q04864)
inactive: [1] 0.045 | [2] -0.176 | [3] -0.022 | [7] 0.043 | [4] 0.159 | [5] 0.003 | [8] 0.011 | [6] 0.141

RNF146 (UniProt Q9NTX7)
inactive: [1] 0.121 | [2] -0.168 | [7] 0.016 | [9] 0.038 | [5] 0.064 | [10] 0.067 | [8] 0.032

RBMY1E (UniProt A6NEQ0)
inactive: [1] -0.068 | [2] -0.236 | [3] -0.034 | [4] 0.084 | [6] -0.199

Continuation.

RNF168 (UniProt Q8IYW5)
inactive: [2] -0.108 | [3] -0.388 | [9] 0.059 | [10] -0.108 | [8] 0.046

RFX7 (UniProt Q2KHR2)
inactive: [8] -0.098

RGS14 (UniProt O43566)
inactive: [1] 0 | [3] -0.098 | [7] -0.06 | [9] -0.01 | [4] 0.147 | [5] -0.147 | [10] -0.006 | [6] 0.086

RIOX2 (UniProt Q8IUF8)
inactive: [2] 0.084 | [3] 0.071 | [7] 0.087 | [9] 0 | [4] -0.05 | [5] 0.093 | [10] 0.032 | [8] -0.012 | [6] -0.119

RFXANK (UniProt O14593)
inactive: [7] 0.108 | [4] -0.038 | [6] 0.028

RNF166 (UniProt Q96A37)
inactive: [2] -0.182 | [9] 0.004 | [4] 0.07 | [5] -0.046 | [8] -0.002 | [6] -0.01

RNASEL (UniProt Q05823)
inactive: [4] 0.051 | [6] 0.001

RHOXF2B (UniProt P0C7M4)
inactive: [2] 0.128

RNF141 (UniProt Q8WVD5)
inactive: [2] 0.154 | [3] 0.134 | [9] -0.08 | [4] -0.023 | [5] -0.083 | [10] 0.076 | [6] 0.113

RFWD3 (UniProt Q6PCD5)
inactive: [2] 0.183 | [7] 0.09 | [9] 0.23 | [5] -0.076

RFC1 (UniProt P35251)
inactive: [4] 0.127 | [5] -0.042 | [8] 0.091 | [6] -0.321

RNF13 (UniProt O43567)
inactive: [1] 0.043 | [7] -0.099 | [5] -0.076 | [10] -0.075 | [8] 0.111

RBM48 isoform 2 (UniProt Q5RL73)
inactive: [2] -0.003 | [3] 0.002 | [7] 0.003 | [4] 0.078 | [6] 0.114

RGP1 (UniProt Q92546)
inactive: [3] 0.089 | [7] -0.249 | [9] 0.038 | [5] 0.023 | [10] -0.242

RMDN2 isoform 2 (UniProt Q96LZ7)
inactive: [3] 0.068 | [5] -0.167

RFX5 (UniProt P48382)
inactive: [2] -0.076 | [3] 0.082 | [7] -0.173 | [9] -0.138 | [4] 0.001 | [10] -0.041 | [6] -0.022

RNF220 isoform 3 (UniProt Q5VTB9)
inactive: [2] -0.31

RBM6 (UniProt P78332)
inactive: [2] -0.148 | [3] 0.094 | [4] 0.148 | [8] 0.109 | [6] 0.175

RGCC (UniProt Q9H4X1)
inactive: [3] -0.416 | [9] 0.047 | [4] -0.034 | [10] 0.022 | [6] 0.296

RIT1 isoform 3 (UniProt Q92963)
inactive: [7] 0.104 | [9] 0.01 | [4] -0.089 | [6] 0.4

RILPL2 (UniProt Q969X0)
inactive: [7] -0.042

RNF115 (UniProt Q9Y4L5)
inactive: [3] 0.156

RMI2 (UniProt Q96E14)
inactive: [2] -0.23 | [5] 0.153 | [8] -0.084

RERE (UniProt Q9P2R6)
inactive: [3] -0.049 | [7] 0.088 | [9] -0.019 | [10] -0.012

RHD (UniProt Q02161)
inactive: [2] 0.073 | [3] 0.094 | [9] -0.129

RILPL1 (UniProt Q5EBL4)
inactive: [1] -0.039 | [7] -0.045 | [9] -0.028 | [5] -0.011 | [8] -0.097

RIPOR1 isoform 4 (UniProt Q6ZS17)
inactive: [7] 0.111

RIC8B isoform 1 (UniProt Q9NVN3)
inactive: [7] 0.074 | [9] 0.187

RCBTB1 (UniProt Q8NDN9)
inactive: [7] 0.334 | [9] -0.051 | [10] 0.01 | [8] -0.007

RBP4 (UniProt P02753)
inactive: [1] -0.154 | [9] 0.129 | [4] 0.292 | [5] -0.039 | [10] 0.027 | [8] 0.405 | [6] -0.271

RNF169 (UniProt Q8NCN4)
inactive: [2] -0.036 | [4] 0.17 | [8] 0.153 | [6] -0.122

RHBDD2 isoform 2 (UniProt Q6NTF9)
inactive: [1] -0.043 | [3] 0.179 | [7] -0.068 | [9] 0.026 | [4] -0.097 | [10] 0.022 | [8] -0.049 | [6] 0.023

RBP1 isoform 3 (UniProt P09455)
inactive: [4] 0.431 | [8] 0.177 | [6] 0.162

RCL1 (UniProt Q5VZU2)
inactive: [7] -0.118 | [8] 0.069

RC3H2 (UniProt Q9HBD1)
inactive: [2] 0.094 | [7] -0.22 | [4] 0.004 | [6] 0.001

RIOX1 (UniProt Q9H6W3)
inactive: [1] 0.247 | [4] 0.294 | [6] 0.05
